For experiment [1], the target named is cynomolgus monkey EpoR (cynoEpoR) (cynomolgus monkey). Briefly: ELISA, cynoEpoR coated, scFv-Fc 5 ug/ml. (ELISA stands for enzyme-linked immunosorbent assay.)
The target in experiment [2] is T1, mouse EpoR (muEpoR) (mouse) (UniProt P14753).
T1 sequence (looked up): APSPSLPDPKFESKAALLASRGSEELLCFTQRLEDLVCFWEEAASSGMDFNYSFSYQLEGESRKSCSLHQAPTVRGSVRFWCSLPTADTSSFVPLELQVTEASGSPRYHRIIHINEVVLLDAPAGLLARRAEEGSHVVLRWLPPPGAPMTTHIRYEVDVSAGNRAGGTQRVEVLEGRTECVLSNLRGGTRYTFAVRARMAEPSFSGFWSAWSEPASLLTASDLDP
Nature of the experiment: ELISA on coated muEpoR, scFv-Fc at 5 µg/ml (Example 17).

Experiment [3] deals with T1, mouse EpoR (muEpoR) (mouse). Nature of the experiment: ELISA, muEpoR coated, scFv-Fc 5 ug/ml.
For experiment [4], the target named is cynomolgus monkey EpoR (cynoEpoR) (cynomolgus monkey). Nature of the experiment: ELISA on coated cynoEpoR, scFv-Fc at 5 µg/ml (Example 17).

These are yes or no findings as the source states them, for the method shown. Some binding calls cover weakened binding; strength is not graded here. Where a sequence is shown, tags or fusion partners need not be part of it.

B1: Mxb 276 (clone 276 scFv-Fc protein) (Fc fusion)
VH: EVQLVQSGGGLVQPGGSLRLSCAASGFTFSSYWMSWVRQAPGKGLEWVANIKPDGSEKYYVDSVKGRFTISRDNAKNSVYLQMNSLRAEDTAVYYCARVSRGGSYSDWGRGTMVTVSS
VL: QSVLTQPPSASGSPGQSVTISCTGTSSDVGGFNYVSWYQKYPGKAPKLVIYEVSKRPSGVPDRFSGSKSGNTASLTVSGLQAEDEADYYCSSWAPGKNLFGGGTKLTVL
Turning to B1, the binding result in experiment [1], in experiment [2], in experiment [3] and in experiment [4] was “binds” in each case.

B2: Mxb 307 (clone 307 scFv-Fc protein) (Fc fusion)
VH: EVQLVESGGGLVQPGGSLRLSCAVSGFTFSKYWMTWVRQAPGKGLEWVANIKPDGSEKYYVESVKGRFTISRDNAKNSVYLQMNSVRAEDTAVYYCARVSRGGSFSDWGQGTMVTVSS
VL: QSVLTQPPSASGSPGQSVTISCTGTSSDVGGYNYVSWYQQHPDKAPRLMIYDVNKRPSGVPDRFSGSKSGNTASLTVSGLQAEDEAHYYCNSYAGSNNWVFGGGTQLTVL
Regarding B2, the binding entry in experiment [1] and in experiment [4] was “binds” each time.

B3: Mxb 323 (clone 323 scFv-Fc protein) (Fc fusion)
VH: QVQLVESGGGLVQPGGSLRLSCAVSGFTFSKYWMTWVRQAPGKGLEWVANIKPDGSEKYYVESVKGRFTISRDNAKNSVYLQMNSVRAEDTAVYYCARVSRGGSFSDWGRGTMVTVSS
VL: QSALTQPASVSGSPGQSITISCTGTSSDVGSYNLVSWYQQHPGKVPKLIIYEVSNRPSGVSHRFSGSKSGNTASLTISGLQAEDEADYYCSSLTSSGTWVFGGGTKVTVL
B3: the binding result in experiment [1], in experiment [2], in experiment [3] and in experiment [4] was “binds” throughout.

B4: Mxb 318 (clone 318 scFv-Fc protein) (Fc fusion)
VH: QVQLVESGGGLVQPGGSLRLSCAVSGFTFSKYWMTWVRQAPGKGLEWVANIKPDGSEKYYVESVKGRFTISRDNAKNSVYLQMNSVRAEDTAVYYCARVSRGGSFSDWGQGTLVTVSS
VL: QSVLTQPPSASGSPGQSVTISCTGTSSDVGGYNYVSWYQQHPGRAPKLIIYEVSKRPSGVPDRFSGSKSGNTASLTVSGLQADDEADYYCNSYAGSIYVFGSGTKVTVL
Consider B4, for which the binding entry in experiment [1] and in experiment [4] was “binds” throughout.

B5: Mxb 352 (clone 352 scFv-Fc protein) (Fc fusion)
VH: EVQLVQSGGGLVQPGGSLRLSCAASGFRFSSYWMTWVRQAPGKGLEWVANIKPDGSEKYYVDSVKGRFTMSRDNAKNSVYLQMNSLRAEDTAVYYCARVSRGGSFSDWGQGTLVTVSS
VL: QSALTQPASVSGSPGQSITIPCTGTSSDIGTYDYVSWYQQHPGKVPKVIIYEVTNRPSGVSNRFSGSKSGNTASLTISGLQADDEADYYCNSFTKNNTWVFGGGTKLTVL
As for B5, the binding entry in experiment [1], in experiment [2], in experiment [3] and in experiment [4] was “binds” each time.

B6: Mxb 15 (clone 15 scFv-Fc protein) (Fc fusion)
VH: QVQLQESGPGLVRPSGTLSLTCAVSGGSIGSSNWWSWVRQAPGKGLEWIGEISQSGSTNYNPSLKGRVTISLDRSRNQLSLKLSSVTAADTAVYYCARQLRSIDAFDIWGPGTTVTVSA
VL: SYVLTQPPSVSVSPGLTATITCSGDKLGDKYASWYQQKPGQSPVLVIYQDRKRPSGIPERFSGSNSGNTATLTISGTQAVDEADYYCQAWDSDTSYVFGTGTQLTVL
On to B6, for which the binding entry in experiment [1] and in experiment [4] was “binds” in each case.

B7: Mxb 295 (clone 295 scFv-Fc protein) (Fc fusion)
VH: EVQLVESGGGLVQPGGSLRLSCAASGFTFSSYAMSWVRQAPGKGLEWVSGISGSGSSEGGTYYADSVKGRFTLSRDNSKNTLYLQMNSLRAEDTALYYCVKDRPSRYSFGYYFDYWGRGTLVTVSS
VL: LPVLTQPPSVSVSPGQTASIACSGNKLGDKYVSWYQQKPGQSPLLVIYQDTKRPSGIPERFSGSNSGNTATLTISGTQAMDEADYYCQAWDSSTDVVFGGGTKLTVL
Turning to B7, the binding entry in experiment [1] and in experiment [4] was “binds” each time.

B8: Mxb 34 (clone 34 scFv-Fc protein) (Fc fusion)
VH: QVQLQQSGAEVKKPGASVKVSCKASGYTFSGYYMHWVRQAPGQGLEWMGWINPNSGSTNYAQKFLGRVTMTRDTSISTAYMELSSLRSDDTAVYYCARGHSGDYFDYWGQGTLVTVSA
VL: EIVLTQSPSSLSASVGDRVTITCRASQSVSSWLAWYQQRPGQAPKLLIYAARLRGGGPSRFSGSGSGTEFTLTISSLQPEDFATYFCQQSYSTPISFGGGTKLEIK
As for B8, the binding entry in experiment [1] and in experiment [4] was “binds” throughout.

B9: Mxb 378 (clone 378 scFv-Fc protein) (Fc fusion)
VH: QVQLVESGGGLVQPGRSLILSCAVSGFTFSKYWMTWVRQAPGKGLEWVANIKPDGSEKYYVESVKGRFTISRDNAKNSVYLQMNSVRAEDTAVYYCARVSRGGSFSDWSQGTLVTVSS
VL: QSALTQPPSASGSPGQSVTISCTGTSGDVGAYNYVSWYQQYPGKAPKLMIYEVSKRPSGVPDRFSGSKSGNTASLTVSGLQAEDEADYYCNSYRGSNGPWVFGGGTKVTVL
B9: the binding entry in experiment [1], in experiment [2], in experiment [3] and in experiment [4] was “binds” each time.

B10: Mxb 319 (clone 319 scFv-Fc protein) (Fc fusion)
VH: QVQLVQSGAEIKKPGASVKVSCKTFGSPFSTNDIHWVRQAPGQGLEWMGIIDTSGAMTRYAQKFQGRVTVTRETSTSTVYMELSSLKSEDTAVYYCAREGCTNGVCYDNGFDIWGQGTLVTVSS
VL: DIQMTQSPSTLSASIGDRVTITCRASEGIYHWLAWYQQKPGKAPKLLIYKASSLASGAPSRFSGSGSGTDFTLTISSLQPDDFATYYCQQYSNYPLTFGGGTKLEIK
Regarding B10, the binding result in experiment [1] and in experiment [4] was “binds” throughout.

B11: Mxb 13 (clone 13 scFv-Fc protein) (Fc fusion)
VH: QVQLQQSGGGVVQPGRSLRLSCAASGFTFSDYAMHWVRQAPGKGLEWVAVISNHGKSTYYADSVKGRFTISRDNSKHMLYLQMNSLRADDTALYYCARDIALAGDYWGQGTLVTVSA
VL: DIQMTQSPSSLSASVGDRVTITCRASQSISSYLNWYQQLPGKVPKLLIYGASKLQSGVPSRFSGSGSGTDFTLTISSLQPEDFATYYCLQDYNYPLTFGPGTRLEIK
On to B11, for which the binding result in experiment [1] and in experiment [4] was “binds” throughout.

B12: Mxb 16 (clone 16 scFv-Fc protein) (Fc fusion)
VH: QVQLQESGPGLVKPSETLSLTCTVSGGYINNYYWSWIRQPPGKGLEWIGYIHYSGSTYYNPSLKSRVTISEDTSKNQFSLKLSSATAADTAVYYCARVGYYYDSSGYNLAWYFDLWGRGTLVTVSA
VL: SSELTQDPAVSVALGQTVRITCQGDNLRSYSATWYQQKPGQAPVLVLFGENNRPSGIPDRFSGSKSGDTAVLTITGTQTQDEADYYCTSRVNSGNHLGVFGPGTQLTVL
On to B12, for which the binding result in experiment [1] and in experiment [4] was “binds” in each case.

The values above are taken from US20080102065A1.
